Article PMC9681113
Where a chain is given by its changes, count along the chain named. These are yes or no findings as the source states them, for the method shown. In cells and extracts the contact can be indirect. Here binding means that the protein was enriched with, or labelled near, the bait; the list need not be complete. Where a sequence is shown, tags or fusion partners need not be part of it.

Key:
Assay in all cases: affinity purification with mass spectrometry; GFP pulldown with GFP Tag Immunomagnetic Beads from lysates of HEK-293 Flp-In T-REx cells expressing EGFP, EGFP-MAB21L1 or mutant EGFP-MAB21L1 after 12 hrs of 1 μg/ml tetracycline; three biological replicates; MaxQuant
[1] = target: T1, GFP-tagged MAB21L1 Arg51Leu (human) (UniProt Q13394)
T1 sequence: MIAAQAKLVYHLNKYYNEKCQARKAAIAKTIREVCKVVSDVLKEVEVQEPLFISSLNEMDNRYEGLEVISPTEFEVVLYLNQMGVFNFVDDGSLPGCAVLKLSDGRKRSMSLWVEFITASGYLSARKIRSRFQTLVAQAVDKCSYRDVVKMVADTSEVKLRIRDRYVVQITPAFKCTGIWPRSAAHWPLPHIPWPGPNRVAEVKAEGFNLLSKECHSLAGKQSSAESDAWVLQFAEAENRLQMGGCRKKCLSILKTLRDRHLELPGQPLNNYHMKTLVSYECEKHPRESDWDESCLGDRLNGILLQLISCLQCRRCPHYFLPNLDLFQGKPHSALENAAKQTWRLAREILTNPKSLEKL

[2] = target: T2, GFP-tagged wild-type MAB21L1 (human) (UniProt Q13394)
T2 sequence: T1 sequence with L51R

[3] = target: T3, GFP-tagged MAB21L1 Arg51Gln (human) (UniProt Q13394)
T3 sequence: T1 sequence with L51Q

Measured: binding

B1: GGCX (protein, UniProt P38435 1-758)
chain: MAVSAGSARTSPSSDKVQKDKAELISGPRQDSRIGKLLGFEWTDLSSWRRLVTLLNRPTDPASLAVFRFLFGFLMVLDIPQERGLSSLDRKYLDGLDVCRFPLLDALRPLPLDWMYLVYTIMFLGALGMMLGLCYRISCVLFLLPYWYVFLLDKTSWNNHSYLYGLLAFQLTFMDANHYWSVDGLLNAHRRNAHVPLWNYAVLRGQIFIVYFIAGVKKLDADWVEGYSMEYLSRHWLFSPFKLLLSEELTSLLVVHWGGLLLDLSAGFLLFFDVSRSIGLFFVSYFHCMNSQLFSIGMFSYVMLASSPLFCSPEWPRKLVSYCPRRLQQLLPLKAAPQPSVSCVYKRSRGKSGQKPGLRHQLGAAFTLLYLLEQLFLPYSHFLTQGYNNWTNGLYGYSWDMMVHSRSHQHVKITYRDGRTGELGYLNPGVFTQSRRWKDHADMLKQYATCLSRLLPKYNVTEPQIYFDIWVSINDRFQQRIFDPRVDIVQAAWSPFQRTSWVQPLLMDLSPWRAKLQEIKSSLDNHTEVVFIADFPGLHLENFVSEDLGNTSIQLLQGEVTVELVAEQKNQTLREGEKMQLPAGEYHKVYTTSPSPSCYMYVYVNTTELALEQDLAYLQELKEKVENGSETGPLPPELQPLLEGEVKGGPEPTPLVQTFLRRQQRLQEIERRRNTPFHERFFRFLLRKLYVFRRSFLMTCISLRNLILGRPSLEQLAQEVTYANLRPFEAVGELNPSNTDSSHSNPPESNPDPVHSEF
binds: [1] | [2] | [3]

B2: ZSCAN18 (protein, UniProt Q8TBC5 1-510)
chain: MLPLEKAFASPRSSPAPPDLPTPGSAAGVQQEEPETIPERTPADLEFSRLRFREFVYQEAAGPHQTLARLHELCRQWLMPEARSKEQMLELLVLEQFLGILPDKVRPWVVAQYPESCKKAASLVEGLADVLEEPGMLLGSPAGSSSILSDGVYERHMDPLLLPGELASPSQALGAGEIPAPSETPWLSPDPLFLEQRRVREAKTEEDGPANTEQKLKSFPEDPQHLGEWGHLDPAEENLKSYRKLLLWGYQLSQPDAASRLDTEELRLVERDPQGSSLPEGGRRQESAGCACEEAAPAGVLPELPTEAPPGDALADPPSGTTEEEEEQPGKAPDPQDPQDAESDSATGSQRQSVIQQPAPDRGTAKLGTKRPHPEDGDGQSLEGVSSSGDSAGLEAGQGPGADEPGLSRGKPYACGECGEAFAWLSHLMEHHSSHGGRKRYACQGCWKTFHFSLALAEHQKTHEKEKSYALGGARGPQPSTREAQAGARAGGPPESVEGEAPPAPPEAQR
binds: [1] | [2] | [3]

B3: SUGT1 (protein, UniProt Q9Y2Z0 1-365)
chain: MAAAAAGTATSQRFFQSFSDALIDEDPQAALEELTKALEQKPDDAQYYCQRAYCHILLGNYCVAVADAKKSLELNPNNSTAMLRKGICEYHEKNYAAALETFTEGQKLDIETGFHRVGQAGLQLLTSSDPPALDSQSAGITGADANFSVWIKRCQEAQNGSESEVWTHQSKIKYDWYQTESQVVITLMIKNVQKNDVNVEFSEKELSALVKLPSGEDYNLKLELLHPIIPEQSTFKVLSTKIEIKLKKPEAVRWEKLEGQGDVPTPKQFVADVKNLYPSSSPYTRNWDKLVGEIKEEEKNEKLEGDAALNRLFQQIYSDGSDEVKRAMNKSFMESGGTVLSTNWSDVGKRKVEINPPDDMEWKKY
binds: [1] | [2] | [3]

B4: PBX3 (protein, UniProt P40426 1-434)
chain: MDDQSRMLQTLAGVNLAGHSVQGGMALPPPPHGHEGADGDGRKQDIGDILHQIMTITDQSLDEAQAKKHALNCHRMKPALFSVLCEIKEKTGLSIRGAQEEDPPDPQLMRLDNMLLAEGVSGPEKGGGSAAAAAAAAASGGSSDNSIEHSDYRAKLTQIRQIYHTELEKYEQACNEFTTHVMNLLREQSRTRPISPKEIERMVGIIHRKFSSIQMQLKQSTCEAVMILRSRFLDARRKRRNFSKQATEILNEYFYSHLSNPYPSEEAKEELAKKCSITVSQVSNWFGNKRIRYKKNIGKFQEEANLYAAKTAVTAAHAVAAAVQNNQTNSPTTPNSGSSGSFNLPNSGDMFMNMQSLNGDSYQGSQVGANVQSQVDTLRHVINQTGGYSDGLGGNSLYSPHNLNANGGWQDATTPSSVTSPTEGPGSVHSDTSN
binds: [1] | [2] | [3]

B5: MEIS2 (protein, UniProt O14770 1-477)
chain: MAQRYDELPHYGGMDGVGVPASMYGDPHAPRPIPPVHHLNHGPPLHATQHYGAHAPHPNVMPASMGSAVNDALKRDKDAIYGHPLFPLLALVFEKCELATCTPREPGVAGGDVCSSDSFNEDIAVFAKQVRAEKPLFSSNPELDNLMIQAIQVLRFHLLELEKVHELCDNFCHRYISCLKGKMPIDLVIDERDGSSKSDHEELSGSSTNLADHNPSSWRDHDDATSTHSAGTPGPSSGGHASQSGDNSSEQGDGLDNSVASPGTGDDDDPDKDKKRQKKRGIFPKVATNIMRAWLFQHLTHPYPSEEQKKQLAQDTGLTILQVNNWFINARRRIVQPMIDQSNRAGFLLDPSVSQGAAYSPEGQPMGSFVLDGQQHMGIRPAGLQSMPGDYVSQGGPMGMSMAQPSYTPPQMTPHPTQLRHGPPMHSYLPSHPHHPAMMMHGGPPTHPGMTMSAQSPTMLNSVDPNVGGQVMDIHAQ
binds: [1] | [2] | [3]

B6: POP1 (protein, UniProt Q99575 1-1024)
chain: MSNAKERKHAKKMRNQPTNVTLSSGFVADRGVKHHSGGEKPFQAQKQEPHPGTSRQRQTRVNPHSLPDPEVNEQSSSKGMFRKKGGWKAGPEGTSQEIPKYITASTFAQARAAEISAMLKAVTQKSSNSLVFQTLPRHMRRRAMSHNVKRLPRRLQEIAQKEAEKAVHQKKEHSKNKCHKARRCHMNRTLEFNRRQKKNIWLETHIWHAKRFHMVKKWGYCLGERPTVKSHRACYRAMTNRCLLQDLSYYCCLELKGKEEEILKALSGMCNIDTGLTFAAVHCLSGKRQGSLVLYRVNKYPREMLGPVTFIWKSQRTPGDPSESRQLWIWLHPTLKQDILEEIKAACQCVEPIKSAVCIADPLPTPSQEKSQTELPDEKIGKKRKRKDDGENAKPIKKIIGDGTRDPCLPYSWISPTTGIIISDLTMEMNRFRLIGPLSHSILTEAIKAASVHTVGEDTEETPHRWWIETCKKPDSVSLHCRQEAIFELLGGITSPAEIPAGTILGLTVGDPRINLPQKKSKALPNPEKCQDNEKVRQLLLEGVPVECTHSFIWNQDICKSVTENKISDQDLNRMRSELLVPGSQLILGPHESKIPILLIQQPGKVTGEDRLGWGSGWDVLLPKGWGMAFWIPFIYRGVRVGGLKESAVHSQYKRSPNVPGDFPDCPAGMLFAEEQAKNLLEKYKRRPPAKRPNYVKLGTLAPFCCPWEQLTQDWESRVQAYEEPSVASSPNGKESDLRRSEVPCAPMPKKTHQPSDEVGTSIEHPREAEEVMDAGCQESAGPERITDQEASENHVAATGSHLCVLRSRKLLKQLSAWCGPSSEDSRGGRRAPGRGQQGLTREACLSILGHFPRALVWVSLSLLSKGSPEPHTMICVPAKEDFLQLHEDWHYCGPQESKHSDPFRSKILKQKEKKKREKRQKPGRASSDGPAGEEPVAGQEALTLGLWSGPLPRVTLHCSRTLLGFVTQGDFSMAVGCGEALGFVSLTGLLDMLSSQPAAQRGLVLLRPPASLQYRFARIAIEV
binds: [1] | [2] | [3]

B7: SPATS2 (protein, UniProt Q86XZ4 1-545)
chain: MSRKQNQKDSSGFIFDLQSNTVLAQGGAFENMKEKINAVRAIVPNKSNNEIILVLQHFDNCVDKTVQAFMEGSASEVLKEWTVTGKKKNKKKKNKPKPAAEPSNGIPDSSKSVSIQEEQSAPSSEKGGMNGYHVNGAINDTESVDSLSEGLETLSIDARELEDPESAMLDTLDRTGSMLQNGVSDFETKSLTMHSIHNSQQPRNAAKSLSRPTTETQFSNMGMEDVPLATSKKLSSNIEKSVKDLQRCTVSLARYRVVVKEEMDASIKKMKQAFAELESCLMDREVALLAEMDKVKAEAMEILLSRQKKAELLKKMTHVAVQMSEQQLVELRADIKHFVSERKYDEDLGRVARFTCDVETLKKSIDSFGQVSHPKNSYSTRSRCSSVTSVSLSSPSDASAASSSTCASPPSLTSANKKNFAPGETPAAIANSSGQPYQPLREVLPGNRRGGQGYRPQGQKSNDPMNQGRHDSMGRYRNSSWYSSGSRYQSAPSQAPGNTIERGQTHSAGTNGTGVSMEPSPPTPSFKKGLPQRKPRTSQTEAVNS
binds: [1] | [2] | [3]
